{"sequences": {"note": "Amino acid sequences for entries named in this document (tags omitted).", "UniProt Q62420": "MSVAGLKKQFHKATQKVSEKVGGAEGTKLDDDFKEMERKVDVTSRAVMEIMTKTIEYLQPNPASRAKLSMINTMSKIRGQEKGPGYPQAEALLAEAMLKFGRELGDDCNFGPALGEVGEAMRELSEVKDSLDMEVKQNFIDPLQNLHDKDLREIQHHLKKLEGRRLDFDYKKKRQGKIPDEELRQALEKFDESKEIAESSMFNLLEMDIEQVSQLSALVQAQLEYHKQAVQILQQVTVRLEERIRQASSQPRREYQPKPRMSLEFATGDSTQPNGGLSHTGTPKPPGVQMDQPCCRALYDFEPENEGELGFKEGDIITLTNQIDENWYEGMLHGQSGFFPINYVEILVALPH"}, "source": "paper PMC12490859", "binders": {"B1": {"name": "gephyrin, Q8BUV3 1-769 (protein)", "chain": "MATEGMILTNHDHQIRVGVLTVSDSCFRNLAEDRSGINLKDLVQDPSLLGGTISAYKIVPDEIEEIKETLIDWCDEKELNLILTTGGTGFAPRDVTPEATKEVIEREAPGMALAMLMGSLNVTPLGMLSRPVCGIRGKTLIINLPGSKKGSQECFQFILPALPHAIDLLRDAIVKVKEVHDELEDLPSPPPPLSPPPTTSPHKQTEDKGVQCEEEEEEKKDSGVASTEDSSSSHITAAALAAKIPDSIISRGVQVLPRDTASLSTTPSESPRAQATSRLSTASCPTPKQIRRPDESKGVASRVGSLKARLPSCSSTYSVSEVQSRCSSKENILRASHSAVDITKVARRHRMSPFPLTSMDKAFITVLEMTPVLGTEIINYRDGMGRVLAQDVYAKDNLPPFPASVKDGYAVRAADGPGDRFIIGESQAGEQPTQTVMPGQVMRVTTGAPIPCGADAVVQVEDTELIRESDDGTEELEVRILVQARPGQDIRPIGHDIKRGECVLAKGTHMGPSEIGLLATVGVTEVEVNKFPVVAVMSTGNELLNPEDDLLPGKIRDSNRSTLLATIQEHGYPTINLGIVGDNPDDLLNALNEGISRADVIITSGGVSMGEKDYLKQVLDIDLHAQIHFGRVFMKPGLPTTFATLDIDGVRKIIFALPGNPVSAVVTCNLFVVPALRKMQGILDPRPTIIKARLSCDVKLDPRPEYHRCILTWHHQEPLPWAQSTGNQMSSRLMSMRSANGLLMLPPKTEQYVELHKGEVVDVMVIGRL"}, "B2": {"name": "gephyrin (protein, UniProt Q8BUV3 1-769)", "chain": "B1 chain"}}, "key": {"[1]": {"biological_target": "T1, GABAAR α1 subunit (mouse (endogenous in mouse brain)), P62812", "T1 chain": "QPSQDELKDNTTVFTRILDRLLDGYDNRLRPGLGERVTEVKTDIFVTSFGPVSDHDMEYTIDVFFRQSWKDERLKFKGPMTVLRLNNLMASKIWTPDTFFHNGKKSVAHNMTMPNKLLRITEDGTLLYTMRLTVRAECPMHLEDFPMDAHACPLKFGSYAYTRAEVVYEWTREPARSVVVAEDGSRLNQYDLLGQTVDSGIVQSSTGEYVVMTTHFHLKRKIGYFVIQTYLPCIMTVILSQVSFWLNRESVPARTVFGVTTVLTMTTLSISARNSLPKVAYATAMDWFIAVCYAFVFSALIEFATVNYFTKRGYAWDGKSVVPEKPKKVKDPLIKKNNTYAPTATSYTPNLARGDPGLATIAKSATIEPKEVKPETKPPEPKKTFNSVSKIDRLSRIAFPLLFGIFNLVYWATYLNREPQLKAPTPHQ", "test": "co-IP; immunoisolation from the membrane fraction (P100) of mouse hippocampi, buffer without detergent (Tris-HCl 20 mM, HEPES 10 mM, NaCl 150 mM, sucrose 250 mM, EDTA 0.5 mM), Dynabeads Protein A coupled with rabbit anti-EndoA1 or rabbit anti-GABAAR α1; immunoblotting; also from Sh3gl2+/+ and Sh3gl2-/- brains", "conditions": "remark: other sources report otherwise"}, "[2]": {"biological_target": "endophilin A1 (mouse (endogenous in mouse brain)) (UniProt Q62420)", "test": "co-IP; whole brain lysate of 8- to 10-week-old mice (1% NP-40, Tris-HCl 20 mM pH 7.4, NaCl 150 mM, EDTA 5 mM), anti-EndoA1 antibody or control IgG overnight at 4°C, Dynabeads Protein A; western blot"}}, "note": "Results are given in words; binding and its absence hold for the method and conditions named. In cells and extracts the contact can be indirect. Some entries that bind do so weakly or less than the wild type."}
{"binder": "B1", "values": [{"measurement": "binding", "setting": "[1]", "value": "binds"}]}
{"binder": "B2", "values": [{"measurement": "binding", "setting": "[2]", "value": "binds"}]}
